Data taken from patent EP4703387A1.
These are yes or no findings as the source states them, for the method shown. A result given as binding can be weak or reduced; the word gives no strength.

Target: Macaca fascicularis CD300A (Macaca fascicularis)
Assay: flow cytometry on Macaca fascicularis PBMCs (monocytes)

B1: Antibody NO. 1 (antibody, V domains shown)
VH: EVQLVESGGDLVKPGGSLKLSCAASGFTFSSYGMSWVRQTPDKRLEWVATISSGGSYTYYPDSVKGRFTISRDNAKNTLYLQMSSLKSEDTAMYYCARHGDYGYPWFAYWGQGTLVTVSA
VL: QIVLTQSPAIMSASLGERVTMTCTASSSVSSSYLHWYQQKPGSSPKLWIYSTSNLASGVPARFSGSGSGTSYSLTISSMEAEDAATYYCHQYHRSHTFGGGTKLEIK
Question: For B1, which binding is on record?
Answer: binds
